Publication PMC4594035, “Xenopus borealis as an alternative source of oocytes for biophysical and pharmacological studies of neuronal ion channels” (Scientific Reports, 2015)

Test system: vitelline membrane of Xenopus oocytes
Experiment: Background fluorescence of oocytes on dye labelling (dye accessibility through the vitelline membrane)
Set-up: species or system X. laevis and X. borealis
Conditions: with or without 1 min protease, 10 μM dye in ND96, 25 s, n = 7

CCN(CC)c1ccc2c(-c3ccc(S(=O)(=O)NCCSS(C)(=O)=O)cc3S(=O)(=O)[O-])c3ccc(=[N+](CC)CC)cc-3oc2c1 [MTSR, sulfo rhodamine methanethiosulfonate]
Background fluorescence upon labelling, X. borealis oocytes (X. borealis oocytes expressing α1N203C GlyR): only increased following protease treatment then labelling
Background fluorescence upon labelling, X. laevis oocytes (X. laevis oocytes expressing α1N203C GlyR): increased to a similar degree upon sulfo rhodamine methanethiosulfonate (MTSR) labelling irrespective of protease treatment
